According to publication PMC7917814:
Where a protein sequence is shown, tags need not be part of it. For part of these data: The exact form of at least one protein or probe is not confirmed. For part of these data: At least one verdict was read from the data and is not stated in words by the source.

How the values were obtained:
[1] = test system: T1, RslR4 (MarR family) (Streptomyces bottropensis); experiment: competition with a labelled probe; conditions: 100 nM protein, 10-250x unlabeled rslR4-T4 competes; EMSA: 20 mM Tris-HCl pH 7.9, 100 mM KCl, 10 mM MgCl2, 1 mM EDTA, 1 mM DTT, 12.5% glycerol, 1 ug poly(dI-dC), 4.5 ug BSA, 28 C, 15 min (25 min for RslR3DBD); recombinant protein; residues 1-171; protein details: C-terminal His tag (pET28a); label: 5'-33P; probe letters rebuilt from the primers and the genome
T1 sequence (looked up): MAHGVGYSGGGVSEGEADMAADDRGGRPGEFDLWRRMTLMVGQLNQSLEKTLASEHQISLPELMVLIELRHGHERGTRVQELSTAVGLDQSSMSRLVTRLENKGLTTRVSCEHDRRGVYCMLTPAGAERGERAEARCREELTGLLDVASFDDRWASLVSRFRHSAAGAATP

[2] = test system: T1, RslR4 (MarR family) (Streptomyces bottropensis); experiment: EMSA; conditions: EMSA: 20 mM Tris-HCl pH 7.9, 100 mM KCl, 10 mM MgCl2, 1 mM EDTA, 1 mM DTT, 12.5% glycerol, 1 ug poly(dI-dC), 4.5 ug BSA, 28 C, 15 min (25 min for RslR3DBD), recombinant protein, residues 1-171, protein details: C-terminal His tag (pET28a), label: 5'-33P, probe letters rebuilt from the primers and the genome

Measured: binding result

GCATGGTACCTGGAGCGGTCTGCGAGGGGTCGGGTGTCGTATCGGGTGCCGTGGACGATTCGGGAGTTCCGCGTGTCATGCGTACCGCCTGGGGTCGATGCAGTCGGGGACGGGCGCGGAACGACGCCGCGCTCTGTGCGTCCCTCACCCTACGAGTAAATGCAGGCGCCTGCATCTAATTTTCGGACAGATCTCTGTCTGCCTTGCTGATGGCCGGTCCAATGGGGCAGGCTGTGAGGGAAAGCGCTTGAAAAATGCATGCATAGACATGGTTTATGCATGGAGTTGGTTATAGTGGAGGGGGAGTGAGCGAAGGGGAGGCGGACATGGCGGCCGATGACCGTGGAGGGCGTCCCGGTGAGTTCGACCTGTGGCGTCGGATGACGCTGATGGTCGGTCAGCTCAACCAGTCGCTGGAGAAGACGCTCGCGAGCGAGCATCAGATCTCCCTGCCCGAGCTGATGGTGCTGATCGAGCTGCGGCACGGTCACGAACGCGGCACCCGGGTGCAGGAGCTGTCCACCGTCTAGATAGC (double strand) [rslR4-T4 intergenic region]
binds: [1] | [2]; galvaquinone A (no ligand effect), 100 nM protein | [2]; several retarded complexes
